In patent publication US20180230236A1:
These are yes or no findings as the source states them, for the method shown. Some entries that bind do so weakly or less than the wild type.

Biological target: T1, IgE epsilon chain peptide … (shared sequence of two adjacent SPOTS 13mer peptides) (canine)
T1 sequence (peptide, synthesised on a cellulose membrane): QKATNIFPYTAPG
Test: SPOTS ELISA on cellulose membrane peptide array

binding: binds
B1: monoclonal antibody (mAb) 5.91 (antibody, V domains shown)
VH: EVQLQQSGPELVKPGASMKISCKASGYSITGYTIHWVKQSHGKNLEWIGLINPYTGGITYNQNFKGKATLTVDKSSSTAYMELLSLTSEDSAVYYCSRGPYGNFYAMDYWGQGTSVTVSS
VL: DIQMTQSPASLSASVGETVTITCRASGNIHNYLAWYQQKQGKSPQLLVYNAKTLADSVPSRFSGSGSGTQFSLKINSLQPEDFGSYYCQHFWSTPYTFGGGTKLEIKR
modifications: antibody biotinylated in ELISA and SPOTS ELISA; sites not stated
